Results from patent US10011578B2, “Compounds for stabilizing ryanodine receptors from aberrant levels of calcium release” (Rosalind Franklin University of Medicine and Science, priority 2013, dated 2018).

System: CA1 neurons
Experiment: Sub-chronic in vivo treatment of 3×Tg-AD mice, passive membrane properties from CA1 neurons
Parameters: species or system mouse
Details: 10 mg/kg ip, 4 weeks

Compound	RMP
O=C(Cc1ccccc1)N/N=C/c1ccc(-c2ccccc2)o1 [CK013]	−69.5 ± 0.4 mV
O=C(N/N=C/c1ccc(-c2ccc(Cl)cc2)o1)N/N=C/c1ccc(-c2ccc(Cl)cc2)o1 [CK017]	−69.0 ± 0.2 mV
